Assay results taken from the supplement of paper PMC11006884.
This is a selection; strong and weak results do not stand in their true shares.

Chains of the proteins cited; added tags and fusions are not shown. Lines headed by an entry give the natural chain unless they say otherwise; changes in a name come on top.
UniProt Q8TDN6: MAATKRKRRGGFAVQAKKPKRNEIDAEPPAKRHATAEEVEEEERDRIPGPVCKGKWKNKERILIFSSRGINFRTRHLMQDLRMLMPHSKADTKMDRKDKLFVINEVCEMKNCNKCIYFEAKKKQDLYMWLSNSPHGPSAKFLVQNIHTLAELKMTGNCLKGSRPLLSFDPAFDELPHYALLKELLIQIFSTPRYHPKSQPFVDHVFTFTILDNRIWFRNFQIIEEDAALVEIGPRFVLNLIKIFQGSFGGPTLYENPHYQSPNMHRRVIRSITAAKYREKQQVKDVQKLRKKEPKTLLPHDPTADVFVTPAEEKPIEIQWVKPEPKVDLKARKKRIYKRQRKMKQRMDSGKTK
UniProt Q8TEX9: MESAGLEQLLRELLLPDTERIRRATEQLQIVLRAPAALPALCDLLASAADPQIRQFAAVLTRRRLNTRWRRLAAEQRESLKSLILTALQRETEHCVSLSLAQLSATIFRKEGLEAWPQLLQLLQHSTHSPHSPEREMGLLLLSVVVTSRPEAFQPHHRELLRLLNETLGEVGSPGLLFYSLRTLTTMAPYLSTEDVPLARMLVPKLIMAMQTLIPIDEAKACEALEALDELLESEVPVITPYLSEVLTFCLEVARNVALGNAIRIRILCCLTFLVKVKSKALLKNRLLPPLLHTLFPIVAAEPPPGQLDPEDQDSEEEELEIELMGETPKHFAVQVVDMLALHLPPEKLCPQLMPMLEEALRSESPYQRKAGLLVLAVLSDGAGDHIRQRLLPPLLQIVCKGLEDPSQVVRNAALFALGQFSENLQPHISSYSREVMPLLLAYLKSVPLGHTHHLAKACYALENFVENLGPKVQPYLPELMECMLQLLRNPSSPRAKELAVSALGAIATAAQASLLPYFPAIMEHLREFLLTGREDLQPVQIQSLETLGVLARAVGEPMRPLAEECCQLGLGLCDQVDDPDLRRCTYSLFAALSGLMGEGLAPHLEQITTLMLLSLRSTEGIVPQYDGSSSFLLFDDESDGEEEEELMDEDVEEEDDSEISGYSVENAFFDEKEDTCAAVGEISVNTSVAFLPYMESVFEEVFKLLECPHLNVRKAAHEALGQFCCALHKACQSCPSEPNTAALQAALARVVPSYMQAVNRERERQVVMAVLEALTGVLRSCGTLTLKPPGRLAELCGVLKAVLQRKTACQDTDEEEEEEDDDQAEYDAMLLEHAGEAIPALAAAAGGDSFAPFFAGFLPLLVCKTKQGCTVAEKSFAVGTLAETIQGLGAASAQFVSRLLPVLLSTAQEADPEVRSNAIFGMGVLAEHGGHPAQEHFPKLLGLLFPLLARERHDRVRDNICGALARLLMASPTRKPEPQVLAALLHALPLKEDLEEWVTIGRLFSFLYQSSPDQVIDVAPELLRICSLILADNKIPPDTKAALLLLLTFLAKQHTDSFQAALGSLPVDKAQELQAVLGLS
UniProt Q8NFC6: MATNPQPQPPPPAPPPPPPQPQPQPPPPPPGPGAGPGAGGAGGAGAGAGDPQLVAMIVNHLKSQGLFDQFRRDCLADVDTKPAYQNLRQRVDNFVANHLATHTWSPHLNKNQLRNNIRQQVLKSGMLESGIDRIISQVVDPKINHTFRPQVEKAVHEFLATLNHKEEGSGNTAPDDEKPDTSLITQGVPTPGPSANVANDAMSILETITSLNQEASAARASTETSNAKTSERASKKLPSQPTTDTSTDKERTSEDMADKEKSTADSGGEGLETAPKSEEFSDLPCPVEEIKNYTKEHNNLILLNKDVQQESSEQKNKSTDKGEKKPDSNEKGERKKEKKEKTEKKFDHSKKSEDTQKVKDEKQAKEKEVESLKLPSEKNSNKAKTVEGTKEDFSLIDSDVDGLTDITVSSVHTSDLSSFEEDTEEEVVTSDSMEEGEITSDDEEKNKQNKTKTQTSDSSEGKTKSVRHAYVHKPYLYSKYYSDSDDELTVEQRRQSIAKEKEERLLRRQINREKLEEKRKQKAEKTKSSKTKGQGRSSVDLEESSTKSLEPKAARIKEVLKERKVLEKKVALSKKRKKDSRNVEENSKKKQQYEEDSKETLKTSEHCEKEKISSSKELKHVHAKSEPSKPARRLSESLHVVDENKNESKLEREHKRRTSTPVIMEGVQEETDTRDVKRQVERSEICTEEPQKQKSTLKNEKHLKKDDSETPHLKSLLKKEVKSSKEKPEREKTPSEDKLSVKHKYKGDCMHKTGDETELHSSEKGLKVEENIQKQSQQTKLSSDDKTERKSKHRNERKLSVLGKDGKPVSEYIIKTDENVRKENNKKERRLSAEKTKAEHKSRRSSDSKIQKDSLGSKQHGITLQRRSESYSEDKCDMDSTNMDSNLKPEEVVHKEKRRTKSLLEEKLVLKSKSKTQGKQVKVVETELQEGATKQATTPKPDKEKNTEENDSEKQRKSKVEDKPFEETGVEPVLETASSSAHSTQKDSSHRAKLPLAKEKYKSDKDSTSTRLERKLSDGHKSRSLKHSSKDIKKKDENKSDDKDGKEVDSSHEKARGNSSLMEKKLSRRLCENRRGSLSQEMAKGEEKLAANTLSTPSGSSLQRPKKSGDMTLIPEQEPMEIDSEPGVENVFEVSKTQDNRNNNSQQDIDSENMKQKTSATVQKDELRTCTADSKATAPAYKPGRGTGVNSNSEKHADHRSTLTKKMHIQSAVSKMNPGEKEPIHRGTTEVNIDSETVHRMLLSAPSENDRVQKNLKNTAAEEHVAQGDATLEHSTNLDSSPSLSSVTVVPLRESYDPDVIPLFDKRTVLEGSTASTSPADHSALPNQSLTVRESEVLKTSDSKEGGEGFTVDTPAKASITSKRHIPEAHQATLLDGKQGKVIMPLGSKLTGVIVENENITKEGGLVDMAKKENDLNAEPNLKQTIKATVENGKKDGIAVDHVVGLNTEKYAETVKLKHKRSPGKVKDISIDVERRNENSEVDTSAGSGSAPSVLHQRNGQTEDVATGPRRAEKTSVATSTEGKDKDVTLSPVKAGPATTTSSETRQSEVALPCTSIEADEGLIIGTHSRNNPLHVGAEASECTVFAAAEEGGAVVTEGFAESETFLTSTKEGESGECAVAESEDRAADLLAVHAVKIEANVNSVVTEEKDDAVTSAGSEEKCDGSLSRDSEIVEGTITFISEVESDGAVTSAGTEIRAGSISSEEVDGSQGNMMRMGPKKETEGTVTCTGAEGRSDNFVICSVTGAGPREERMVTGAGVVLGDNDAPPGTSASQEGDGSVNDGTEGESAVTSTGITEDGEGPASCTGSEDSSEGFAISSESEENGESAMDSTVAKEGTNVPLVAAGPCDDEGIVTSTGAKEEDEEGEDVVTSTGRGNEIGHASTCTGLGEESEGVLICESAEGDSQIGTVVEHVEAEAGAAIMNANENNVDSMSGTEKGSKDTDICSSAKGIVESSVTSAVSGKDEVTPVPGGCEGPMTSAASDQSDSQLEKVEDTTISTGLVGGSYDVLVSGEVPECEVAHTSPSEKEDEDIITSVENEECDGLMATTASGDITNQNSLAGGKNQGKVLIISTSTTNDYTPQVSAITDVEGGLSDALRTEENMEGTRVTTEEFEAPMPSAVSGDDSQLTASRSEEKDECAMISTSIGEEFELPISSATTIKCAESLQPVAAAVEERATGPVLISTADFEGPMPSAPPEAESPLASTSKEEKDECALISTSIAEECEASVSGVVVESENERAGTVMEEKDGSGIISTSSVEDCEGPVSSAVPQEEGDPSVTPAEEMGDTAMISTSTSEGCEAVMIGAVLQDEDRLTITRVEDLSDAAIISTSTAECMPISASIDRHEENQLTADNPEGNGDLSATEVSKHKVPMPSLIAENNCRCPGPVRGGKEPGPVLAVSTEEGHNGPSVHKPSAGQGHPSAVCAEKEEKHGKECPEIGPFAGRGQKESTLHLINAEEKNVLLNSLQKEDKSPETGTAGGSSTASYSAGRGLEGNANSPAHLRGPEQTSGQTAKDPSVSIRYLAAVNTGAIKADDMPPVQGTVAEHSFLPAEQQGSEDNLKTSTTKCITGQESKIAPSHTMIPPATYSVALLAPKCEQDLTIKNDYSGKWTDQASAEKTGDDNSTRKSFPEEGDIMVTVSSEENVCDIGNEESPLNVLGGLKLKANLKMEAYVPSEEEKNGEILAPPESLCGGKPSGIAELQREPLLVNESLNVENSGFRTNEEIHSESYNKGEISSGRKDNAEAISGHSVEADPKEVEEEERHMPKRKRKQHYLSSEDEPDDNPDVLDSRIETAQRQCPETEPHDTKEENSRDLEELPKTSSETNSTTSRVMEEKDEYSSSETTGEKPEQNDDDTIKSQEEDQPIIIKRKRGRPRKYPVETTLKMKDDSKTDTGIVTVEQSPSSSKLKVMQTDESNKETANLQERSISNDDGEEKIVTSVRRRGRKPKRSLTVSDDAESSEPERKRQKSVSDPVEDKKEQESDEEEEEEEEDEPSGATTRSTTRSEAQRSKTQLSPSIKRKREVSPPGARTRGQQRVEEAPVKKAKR
UniProt Q8ND82: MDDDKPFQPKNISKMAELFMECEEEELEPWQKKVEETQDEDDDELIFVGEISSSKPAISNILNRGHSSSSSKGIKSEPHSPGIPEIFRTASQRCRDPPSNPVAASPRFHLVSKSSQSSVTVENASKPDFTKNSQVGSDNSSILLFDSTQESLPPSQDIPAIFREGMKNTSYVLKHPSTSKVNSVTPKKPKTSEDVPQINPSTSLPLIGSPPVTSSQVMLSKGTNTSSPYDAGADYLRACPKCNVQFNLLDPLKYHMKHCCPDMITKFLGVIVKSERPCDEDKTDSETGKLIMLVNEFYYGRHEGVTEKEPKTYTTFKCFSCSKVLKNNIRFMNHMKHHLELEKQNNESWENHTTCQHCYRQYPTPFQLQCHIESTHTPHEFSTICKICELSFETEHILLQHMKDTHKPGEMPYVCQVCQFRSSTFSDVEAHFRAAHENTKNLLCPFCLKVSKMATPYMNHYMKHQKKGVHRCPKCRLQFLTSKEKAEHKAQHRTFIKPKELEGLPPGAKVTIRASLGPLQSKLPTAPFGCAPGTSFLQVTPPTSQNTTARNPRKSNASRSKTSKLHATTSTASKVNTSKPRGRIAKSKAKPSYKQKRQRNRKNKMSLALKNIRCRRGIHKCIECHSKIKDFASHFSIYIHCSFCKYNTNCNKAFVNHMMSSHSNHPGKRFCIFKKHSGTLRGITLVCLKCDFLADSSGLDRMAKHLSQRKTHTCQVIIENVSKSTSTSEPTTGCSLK
UniProt Q8NB37: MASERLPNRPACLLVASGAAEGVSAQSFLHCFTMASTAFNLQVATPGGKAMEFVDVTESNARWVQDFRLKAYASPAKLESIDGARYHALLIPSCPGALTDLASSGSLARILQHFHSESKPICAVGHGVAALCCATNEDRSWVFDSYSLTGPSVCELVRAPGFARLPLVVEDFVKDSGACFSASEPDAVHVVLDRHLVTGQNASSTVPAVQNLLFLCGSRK
UniProt Q8N8R5: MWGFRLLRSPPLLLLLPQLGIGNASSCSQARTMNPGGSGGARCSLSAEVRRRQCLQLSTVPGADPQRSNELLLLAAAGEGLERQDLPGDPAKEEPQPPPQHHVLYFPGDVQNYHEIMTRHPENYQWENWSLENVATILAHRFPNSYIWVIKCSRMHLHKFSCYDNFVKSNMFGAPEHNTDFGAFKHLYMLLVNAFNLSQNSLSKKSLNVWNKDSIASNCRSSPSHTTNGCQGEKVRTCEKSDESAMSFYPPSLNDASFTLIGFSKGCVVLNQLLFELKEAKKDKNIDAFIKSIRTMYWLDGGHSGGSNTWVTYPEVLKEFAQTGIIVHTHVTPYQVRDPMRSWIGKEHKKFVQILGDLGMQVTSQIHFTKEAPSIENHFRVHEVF
UniProt Q8NBF2: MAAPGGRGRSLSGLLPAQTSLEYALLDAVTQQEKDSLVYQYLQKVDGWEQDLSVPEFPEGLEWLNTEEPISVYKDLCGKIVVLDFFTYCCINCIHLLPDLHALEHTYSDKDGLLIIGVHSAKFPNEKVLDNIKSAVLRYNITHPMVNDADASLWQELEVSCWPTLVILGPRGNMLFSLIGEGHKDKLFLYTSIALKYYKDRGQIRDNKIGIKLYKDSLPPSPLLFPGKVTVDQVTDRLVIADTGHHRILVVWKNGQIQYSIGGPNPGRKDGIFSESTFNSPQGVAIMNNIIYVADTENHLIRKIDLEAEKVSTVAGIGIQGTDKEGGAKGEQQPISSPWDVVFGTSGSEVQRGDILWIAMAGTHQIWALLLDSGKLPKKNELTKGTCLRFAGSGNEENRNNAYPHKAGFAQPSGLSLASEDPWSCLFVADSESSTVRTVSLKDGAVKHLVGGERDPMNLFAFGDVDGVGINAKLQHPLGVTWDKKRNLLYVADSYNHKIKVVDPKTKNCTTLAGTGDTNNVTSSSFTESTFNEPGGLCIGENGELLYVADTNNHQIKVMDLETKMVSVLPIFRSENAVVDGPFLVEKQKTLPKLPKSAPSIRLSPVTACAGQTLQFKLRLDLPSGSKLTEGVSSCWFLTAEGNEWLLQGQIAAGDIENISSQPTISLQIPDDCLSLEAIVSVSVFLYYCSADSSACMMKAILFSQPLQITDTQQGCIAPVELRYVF

compound: COC(=O)C#Cc1ccccc1 [methyl 3-phenylpropiolate]; experiment: log2 ratio of iodoacetamide-alkyne labeling of the cysteine site, DMSO over compound (competition); higher = stronger covalent engagement of the cysteine by the compound, active = 1 or more; settings: 500 µM; treatment time 1 h; system: HEK293T cell lysate
Summary of the method: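 HEK293T lysate (2 mg/mL) was incubated with electrophile (500 µM) or vehicle for 1 h at ambient temperature and then with iodoacetamide alkyne for 1 h. Labelled proteins were clicked to sCIP-TMT reagents, pooled, digested, enriched on streptavidin and measured by Orbitrap Eclipse LC-MS/MS with FAIMS, with FragPipe quantification. The per-cysteine log2 competition ratio is mean control-channel reporter intensity over mean compound-channel reporter intensity. Across three replicates with duplicate channels, cysteines quantified in only one replicate were excluded.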

Row | Target | log2 ratio of iodoacetamide-alkyne labeling
1 | VPS8 C864 (UniProt Q8N3P4) | inactive: 0.00127
2 | ATG4A C217 (UniProt Q8WYN0) | inactive: 0.291
3 | SLC25A40 C142 (UniProt Q8TBP6) | inactive: 0.134
4 | MPP5 C490 (UniProt Q8N3R9) | inactive: 0.378
5 | UniProt Q8TDN6_C52 | inactive: 0.652
6 | PHIP C954 (UniProt Q8WWQ0) | active: 1.46
7 | WDTC1 C312 (UniProt Q8N5D0) | inactive: 0.954
8 | KLHDC4 C430 (UniProt Q8TBB5) | inactive: 0.264
9 | XRN1 C1450 (UniProt Q8IZH2) | inactive: -0.208
10 | PHF10 C380 (UniProt Q8WUB8) | inactive: 0.137
11 | LPCAT1 C216 (UniProt Q8NF37) | inactive: 0.211
12 | IPO4 C459 (UniProt Q8TEX9) | inactive: -0.0458
13 | UniProt Q8NFC6_C686 | inactive: 0.47
14 | ZNF280C C734 (UniProt Q8ND82) | inactive: 0.513
15 | FLAD1 C499 (UniProt Q8NFF5) | active: 1.06
16 | UniProt Q8NBU5_C359 | inactive: 0.41
17 | UniProt Q8NFC6_C1554 | inactive: 0.394
18 | GEMIN6 C128 (UniProt Q8WXD5) | inactive: 0.475
19 | PPHLN1 C446 (UniProt Q8NEY8) | inactive: 0.117

Row | Target | log2 ratio of iodoacetamide-alkyne labeling
20 | UniProt Q8N163_C238 | inactive: 0.203
21 | ZC3H15 C105 (UniProt Q8WU90) | inactive: 0.129
22 | ZNF280C C530 (UniProt Q8ND82) | inactive: 0.334
23 | TTL C91 (UniProt Q8NG68) | inactive: 0.249
24 | NUDT8 C224 (UniProt Q8WV74) | inactive: 0.747
25 | UniProt Q8NHM5_C533 | inactive: -0.242
26 | AHCTF1 C521 (UniProt Q8WYP5) | active: 1.16
27 | ARFGAP2 C79 (UniProt Q8N6H7) | inactive: 0.0746
28 | UniProt Q8NB37_C94 | inactive: 0.273
29 | LZTR1 C342 (UniProt Q8N653) | inactive: 0.244
30 | SERBP1 C11 (UniProt Q8NC51) | inactive: 0.221
31 | SRBD1 C120 (UniProt Q8N5C6) | inactive: 0.471
32 | DYNC2H1 C3975 (UniProt Q8NCM8) | inactive: 0.133
33 | ZNF280C C94 (UniProt Q8ND82) | inactive: 0.666
34 | UniProt Q8WZA9_C504 | inactive: 0.0403
35 | FBXO30 C317 (UniProt Q8TB52) | inactive: 0.564
36 | C2orf69 C54 (UniProt Q8N8R5) | inactive: 0.37
37 | NHLRC2 C716 (UniProt Q8NBF2) | inactive: 0.101

An excerpt of these results, in CSV form:
Row,Target,log2 ratio of iodoacetamide-alkyne labeling
26,AHCTF1 C521 (UniProt Q8WYP5),active: 1.16
28,UniProt Q8NB37_C94,inactive: 0.273
